Results are given in words; binding and its absence hold for the method and conditions named. In cells and extracts the contact can be indirect. Some binding calls cover weakened binding; strength is not graded here. Tags and fused reporters may be left off the sequences shown. One block for each binder: values may come before it.
Key:
[1] = target: T1, TOPOISOMERASE Iα with 4HA tag (TOP1α-4HA) (Arabidopsis thaliana) (UniProt P30181); assay: co-IP; nuclear protein extracts of pistils (progeny of top1α-10 gTOP1α-4HA x upf1-1 gUPF1-3FLAG), anti-HA agarose beads, 4°C 2 h, 50 mM Tris-HCl pH 7.5, 150 mM NaCl, 0.5% Triton X-100; detected by anti-FLAG
T1 sequence: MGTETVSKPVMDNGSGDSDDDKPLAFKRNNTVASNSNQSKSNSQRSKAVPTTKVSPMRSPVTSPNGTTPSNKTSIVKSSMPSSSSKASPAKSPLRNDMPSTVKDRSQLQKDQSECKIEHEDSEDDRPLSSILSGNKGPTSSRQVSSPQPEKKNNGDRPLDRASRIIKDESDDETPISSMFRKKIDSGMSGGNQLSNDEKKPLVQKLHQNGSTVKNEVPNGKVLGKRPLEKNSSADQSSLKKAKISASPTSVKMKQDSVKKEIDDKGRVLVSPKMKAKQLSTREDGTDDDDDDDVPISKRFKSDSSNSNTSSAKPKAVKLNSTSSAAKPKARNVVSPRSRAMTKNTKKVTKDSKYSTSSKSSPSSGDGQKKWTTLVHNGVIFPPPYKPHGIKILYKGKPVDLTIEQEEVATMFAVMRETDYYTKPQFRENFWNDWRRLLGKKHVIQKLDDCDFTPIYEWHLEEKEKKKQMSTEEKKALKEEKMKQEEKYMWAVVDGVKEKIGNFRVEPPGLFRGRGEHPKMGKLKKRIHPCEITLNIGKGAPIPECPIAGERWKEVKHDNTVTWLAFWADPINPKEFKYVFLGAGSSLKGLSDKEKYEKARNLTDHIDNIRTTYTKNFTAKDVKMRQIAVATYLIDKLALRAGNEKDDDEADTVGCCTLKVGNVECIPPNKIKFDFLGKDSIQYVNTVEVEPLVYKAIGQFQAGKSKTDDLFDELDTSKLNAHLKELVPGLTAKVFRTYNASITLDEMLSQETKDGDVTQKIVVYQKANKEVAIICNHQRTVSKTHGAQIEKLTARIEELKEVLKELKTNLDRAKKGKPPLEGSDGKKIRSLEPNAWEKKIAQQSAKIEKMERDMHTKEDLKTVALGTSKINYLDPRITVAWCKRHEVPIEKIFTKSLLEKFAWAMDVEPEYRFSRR

[2] = target: T2, TOP1α fused to cYFP (Arabidopsis thaliana) (UniProt P30181); assay: split reporter; BiFC in Nicotiana benthamiana leaf epidermal cells, 2 d after infiltration, confocal microscope; signal only in the nucleus
T2 sequence: T1 sequence

binding [1]: binds
B1: UPF1-3FLAG (enzyme, UniProt Q9FJR0 1-1254)
chain: MDSQQSDLFDTASQPDTVADEYTFLEFNTQGDSEFDYQDFGSPTAWPTPSDSISIADVADRGEGGAAADHHSEASSPSSLSAGAGNGAKVGRGGVGGSGGVSSSSQVDALAAGVGNLNFEETGDDDGFDYGKNDFTEHACKYCGISNPACVVRCNVASCRKWFCNSRGNTSGSHIVNHLVRAKHKEVCLHRDSPLGETILECYNCGCRNVFLLGFISAKTDSVVVLLCRDPCLNVNALKDMNWDLSQWCPLIDDRCFLPWLVKVPSEQEQLRARQISAQQINKIEELWKTNPDATLEDLEKPGVDDEPQPVQPKYEDAYQYQNVFAPLIKLEADYDKMMKESQSKENLTVRWDIGLNKKRVAYFVFPKEENELRLVPGDELRLRYSGDAVHPSWQSVGHVIKLTAQEEVALELRANQGVPIDVNHGFSVDFVWKSTSFDRMQGAMKNFAVDETSVSGYIYHQLLGHEVEAQMVRNTLPRRFGVPGLPELNASQVNAVKSVLQKPISLIQGPPGTGKTVTSAAIVYHMAKQGQGQVLVCAPSNVAVDQLAEKISATGLKVVRLCAKSREAVSSPVEYLTLHYQVRHLDTSEKSELHKLQQLKDEQGELSSSDEKKYKNLKRATEREITQSADVICCTCVGAADLRLSNFRFRQVLIDESTQATEPECLIPLVLGVKQVVLVGDHCQLGPVIMCKKAARAGLAQSLFERLVTLGIKPIRLQVQYRMHPALSEFPSNSFYEGTLQNGVTIIERQTTGIDFPWPVPNRPMFFYVQLGQEEISASGTSYLNRTEAANVEKLVTAFLKSGVVPSQIGVITPYEGQRAYIVNYMARNGSLRQQLYKEIEVASVDSFQGREKDYIILSCVRSNEHQGIGFLNDPRRLNVALTRARYGIVILGNPKVLSKQPLWNGLLTHYKEHECLVEGPLNNLKQSMVQFQKPRKIYNDRRLFYGGGAGMIGNDNFGSGNPNADRRGSRGRAGGSYLPSGPPNGARPGLHPAGYPIPRVPLSPFPGGPPSQPYAIPTRGPVGAVPHAPQPGNHGFGAGRGTSVGGHLPHQQATQHNVGTIGPSLNFPLDSPNSQPSPGGPLSQPGYGSQAFRDGFSMGGISQDFLADDIKSQGSHDPYNMADFATQASPGGFAVDYATQGAHGAFPGNFMNQNSQGGYSRFSGINDFMSQEYMAHGGQGLFTQAGFIDSSQDDGQQNPYGVNNPNLQSQGLPNSLYSQPFAHYNTQPLNLSGPQQSQPNQSSQNPKHPYNG

binding [2]: binds
B2: UPF1 fused to nYFP (enzyme, UniProt Q9FJR0 1-1254)
chain: B1 chain
